PubChem BioAssay AID1224830 | NIAID, 2016

Aim: 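Genes whose knock-down alters the TNF-alpha reporter response to LPS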 (primary screen)
Cells: human THP-1 monocytic leukaemia cells, TNF dual-luciferase reporter clone, PMA-differentiated to macrophage-like cells
Reagents: siRNA pool against human genes, 50 nM
Time to read-out: LPS for 4 h, given about 3 days after siRNA transfection
Conditions: bacterial LPS (TLR4 ligand), 10 ng/ml
Measured: 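Ratio of firefly to renilla light, scaled to the plate median and expressed as a robust z-score per replicate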
Reading the numbers: TNF reporter robust z-score: higher = stronger TNF reporter response to LPS
Call rule: 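a well is active when its z-score exceeds 2.8 or falls below -1.5; control wells carry no call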
The deposit covers about 18,000 reagents; shown is an unselected part. About 2,900 of all reagents (16%) count as active. 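Calls are made per well; low scores hint the gene aids the LPS response, high scores that it dampens it.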 Repeated entries: four replicate wells of each siRNA pool. No sequences are given here.

{"Target gene":"SCARA3 (scavenger receptor class A member 3)","TNF reporter robust z-score":-0.03,"Call":"inactive"}
{"Target gene":"SCARA3 (scavenger receptor class A member 3)","TNF reporter robust z-score":-0.1,"Call":"inactive"}
{"Target gene":"SCARA3 (scavenger receptor class A member 3)","TNF reporter robust z-score":-0.36,"Call":"inactive"}
{"Target gene":"SCARA3 (scavenger receptor class A member 3)","TNF reporter robust z-score":-0.34,"Call":"inactive"}
{"Target gene":"GSPT1 (G1 to S phase transition 1)","TNF reporter robust z-score":0.2,"Call":"inactive"}
{"Target gene":"GSPT1 (G1 to S phase transition 1)","TNF reporter robust z-score":3.17,"Call":"active"}
{"Target gene":"GSPT1 (G1 to S phase transition 1)","TNF reporter robust z-score":-0.62,"Call":"inactive"}
{"Target gene":"GSPT1 (G1 to S phase transition 1)","TNF reporter robust z-score":-0.53,"Call":"inactive"}
{"Target gene":"MARCKSL1 (MARCKS like 1)","TNF reporter robust z-score":-0.87,"Call":"inactive"}
{"Target gene":"MARCKSL1 (MARCKS like 1)","TNF reporter robust z-score":-0.17,"Call":"inactive"}
{"Target gene":"MARCKSL1 (MARCKS like 1)","TNF reporter robust z-score":-0.55,"Call":"inactive"}
{"Target gene":"MARCKSL1 (MARCKS like 1)","TNF reporter robust z-score":-1.22,"Call":"inactive"}
{"Target gene":"CLDN2 (claudin 2)","TNF reporter robust z-score":-0.79,"Call":"inactive"}
{"Target gene":"CLDN2 (claudin 2)","TNF reporter robust z-score":-0.68,"Call":"inactive"}
{"Target gene":"CLDN2 (claudin 2)","TNF reporter robust z-score":-0.55,"Call":"inactive"}
{"Target gene":"CLDN2 (claudin 2)","TNF reporter robust z-score":-0.77,"Call":"inactive"}
{"Target gene":"SH3BP5L (SH3 binding domain protein 5 like)","TNF reporter robust z-score":0.27,"Call":"inactive"}
{"Target gene":"SH3BP5L (SH3 binding domain protein 5 like)","TNF reporter robust z-score":0.2,"Call":"inactive"}
{"Target gene":"SH3BP5L (SH3 binding domain protein 5 like)","TNF reporter robust z-score":-0.42,"Call":"inactive"}
{"Target gene":"SH3BP5L (SH3 binding domain protein 5 like)","TNF reporter robust z-score":0.25,"Call":"inactive"}
{"Target gene":"TGM5 (transglutaminase 5)","TNF reporter robust z-score":-1.44,"Call":"inactive"}
{"Target gene":"TGM5 (transglutaminase 5)","TNF reporter robust z-score":-1.26,"Call":"inactive"}
{"Target gene":"TGM5 (transglutaminase 5)","TNF reporter robust z-score":-1.34,"Call":"inactive"}
{"Target gene":"TGM5 (transglutaminase 5)","TNF reporter robust z-score":-1.37,"Call":"inactive"}
{"Target gene":"FLT3LG (fms related receptor tyrosine kinase 3 ligand)","TNF reporter robust z-score":-0.14,"Call":"inactive"}
{"Target gene":"FLT3LG (fms related receptor tyrosine kinase 3 ligand)","TNF reporter robust z-score":-0.09,"Call":"inactive"}
{"Target gene":"FLT3LG (fms related receptor tyrosine kinase 3 ligand)","TNF reporter robust z-score":-0.79,"Call":"inactive"}
{"Target gene":"FLT3LG (fms related receptor tyrosine kinase 3 ligand)","TNF reporter robust z-score":0.2,"Call":"inactive"}
{"Target gene":"DIO3 (iodothyronine deiodinase 3)","TNF reporter robust z-score":3.46,"Call":"active"}
{"Target gene":"DIO3 (iodothyronine deiodinase 3)","TNF reporter robust z-score":2.55,"Call":"inactive"}
{"Target gene":"DIO3 (iodothyronine deiodinase 3)","TNF reporter robust z-score":1.77,"Call":"inactive"}
{"Target gene":"DIO3 (iodothyronine deiodinase 3)","TNF reporter robust z-score":4.25,"Call":"active"}
{"Target gene":"HOXC13 (homeobox C13)","TNF reporter robust z-score":-0.88,"Call":"inactive"}
{"Target gene":"HOXC13 (homeobox C13)","TNF reporter robust z-score":-0.89,"Call":"inactive"}
{"Target gene":"HOXC13 (homeobox C13)","TNF reporter robust z-score":-0.84,"Call":"inactive"}
{"Target gene":"HOXC13 (homeobox C13)","TNF reporter robust z-score":-0.93,"Call":"inactive"}
{"Target gene":"OPTC (opticin)","TNF reporter robust z-score":0.54,"Call":"inactive"}
{"Target gene":"OPTC (opticin)","TNF reporter robust z-score":-0.05,"Call":"inactive"}
{"Target gene":"OPTC (opticin)","TNF reporter robust z-score":-1.1,"Call":"inactive"}
{"Target gene":"OPTC (opticin)","TNF reporter robust z-score":-1.29,"Call":"inactive"}
{"Target gene":"ADAMTS15 (ADAM metallopeptidase with thrombospondin type 1 motif 15)","TNF reporter robust z-score":-0.62,"Call":"inactive"}
{"Target gene":"ADAMTS15 (ADAM metallopeptidase with thrombospondin type 1 motif 15)","TNF reporter robust z-score":0.97,"Call":"inactive"}
{"Target gene":"ADAMTS15 (ADAM metallopeptidase with thrombospondin type 1 motif 15)","TNF reporter robust z-score":0.42,"Call":"inactive"}
{"Target gene":"ADAMTS15 (ADAM metallopeptidase with thrombospondin type 1 motif 15)","TNF reporter robust z-score":0.18,"Call":"inactive"}
{"Target gene":"CMKLR1 (chemerin chemokine-like receptor 1)","TNF reporter robust z-score":-0.07,"Call":"inactive"}
{"Target gene":"CMKLR1 (chemerin chemokine-like receptor 1)","TNF reporter robust z-score":-0.05,"Call":"inactive"}
{"Target gene":"CMKLR1 (chemerin chemokine-like receptor 1)","TNF reporter robust z-score":-0.71,"Call":"inactive"}
{"Target gene":"CMKLR1 (chemerin chemokine-like receptor 1)","TNF reporter robust z-score":-0.35,"Call":"inactive"}

An excerpt taken from the entries so far, for reference:
{"Target gene":"SCARA3 (scavenger receptor class A member 3)","TNF reporter robust z-score":-0.1,"Call":"inactive"}
{"Target gene":"SCARA3 (scavenger receptor class A member 3)","TNF reporter robust z-score":-0.36,"Call":"inactive"}
